{"source": "patent US12508243B2", "about": "“Compositions and methods for treating cancer and improving epithelial homeostasis” (The Regents of the University of California, priority 2019, dated 2025)", "note": "Some results were stated once for a whole list of compounds, not compound by compound."}
{"system": "TCF/LEF luciferase reporter", "assay": "TCF/LEF luciferase reporter assay in transduced BEAS2B cells (CHIR-induced)", "format": "cell-based, human", "details": "various concentrations", "method": "BEAS2B cells (ATCC CRL-9609) were seeded in a 6-well plate and infected with Cignal lentiviral particles containing a TCF/LEF luciferase reporter (Qiagen CLS-018L). Cells were spin infected at 37° C. for one hour using a multiplicity of infection of 20. Cells were selected with 0.6 μg/mL puromycin to isolate stably expressing clones.\nFor luciferase reporter assays conducted outside of the high-throughput drug screen, BEAS2B cells were seeded in a 96-well plate at 20,000 cells per well. The following day, cells were with treated DMSO, 5 μM CHIR99021 (CHIR; Tocris 4423), or 5 μM CHIR plus WIC2 (Key Organics GP-0355), Coumarin (Sigma C4261), or WIC1 for 24 hours. Lysis reactions were conducted using BrightGlo (Promega E1910) and incubated for two minutes at room temperature prior to transferring luminescence reactions to white-bottom, white-walled 96-well plates (Costar). Toxicity assays were conducted by adding Cell Titer Glo reagent (Promega) following manufacturer's protocol. Luminescence readings were conducted using the Clariostar plate reader.\nIn light of the finding that Wnt/β-catenin signaling drives ABSC hyperproliferation, a small molecule inhibitors of the pathway that could restore airway homeostasis. A high-throughput drug screen was established to identify compounds capable of reducing TCF/LEF activity measured by a luciferase reporter induced by CHIR treatment in a 384-well format (FIG. 3A). Briefly, white-bottom 384-well plates (Greiner One) were precoated overnight with 0.01 mg/mL fibronectin from human plasma (Sigma F0895), 0.03 mg/mL rat tail collagen type I (Corning 354249), and 0.01 mg/mL BSA (ThermoFisher BP-9706) diluted in 50 uL of Airway Epithelial Cell Growth Medium (PromoCell C21060). Precoat was then aspirated and washed using 100 μL the BioTek EL406. A custom V&P pin tool mounted to a Beckman FX liquid handler was then used to pin […] of 10 mM stock compound. 2,000 BEAS2B cells per well were then seeded using the Multidrop. Cells were therefore treated with 1% DMSO, 5 μM CHIR, or 5 μM CHIR+10 μM pinned compound and incubated for 24 hours at 37° C. and 5% CO2. 5 μg/mL Hoechst 33342 was added to each well, incubated for 15 minutes, and wells were visualized using the ImageXpress XL system. 25 μL BrightGlo (Promega) was subsequently added to each well using the BioTek EL405 and incubated for 2 minutes prior reading luminescence values with the Envision plate reader (FIG. 3B). Morphometric measurements were performed by counting Hoechst-labeled cell nuclei per well. […] Hits were selected on a cut-off of more than 3 standard deviations from mean using data normalized to reference CHIR-treated wells within each plate. Z′ factor values were used to assess assay quality and was calculated by: Z′=1-3(SD Total+SDBackground)/(MeanTotal−MeanBackground) where SDTotal and MeanTotal are the standard deviation and mean of signal for CHIR-treated wells, and SDBackground and MeanBackground are the standard deviation and mean of signal for DMSO-treated wells. The Z′ factor value was calculated to be 0.82."}
{"smiles": "COc1cccc2cc(C(=O)Nc3ccccc3-c3ccc(C)o3)c(=O)oc12", "note": "[WIC2]", "TCF/LEF luciferase reporter activity, dose course": "reproducibly decreased reporter activity"}
{"smiles": "CCCCNC(=O)c1cc2cccc(OC)c2oc1=O", "note": "[WIC3]", "TCF/LEF luciferase reporter activity, dose course": "reproducibly decreased reporter activity"}
{"smiles": "COc1cccc2cc(C(=O)Nc3ccccc3)c(=O)oc12", "note": "[WIC4]", "TCF/LEF luciferase reporter activity, dose course": "reproducibly decreased reporter activity"}
{"smiles": "COc1cccc2cc(C(=O)Nc3ccc4c(c3)N(C(C)=O)CC4)c(=O)oc12", "note": "[WIC5]", "TCF/LEF luciferase reporter activity, dose course": "reproducibly decreased reporter activity"}
{"smiles": "COc1cccc2cc(C(=O)Nc3ccc4c(c3)N(C(=O)C3CC3)CC4)c(=O)oc12", "note": "[WIC6]", "TCF/LEF luciferase reporter activity, dose course": "reproducibly decreased reporter activity"}
{"smiles": "COc1cccc2cc(C(=O)Nc3ccc4c(c3)N(C(=O)C(C)(C)C)CC4)c(=O)oc12", "note": "[WIC7]", "TCF/LEF luciferase reporter activity, dose course": "reproducibly decreased reporter activity"}
{"smiles": "COc1cccc2cc(C(=O)Nc3ccc4c(c3)N(C(=O)C3CCCC3)CC4)c(=O)oc12", "note": "[WIC8]", "TCF/LEF luciferase reporter activity, dose course": "reproducibly decreased reporter activity"}
{"smiles": "COc1cccc2cc(C(=O)Nc3ccc4c(c3)N(CN3CCOCC3)CC4)c(=O)oc12", "note": "[WIC9]", "TCF/LEF luciferase reporter activity, dose course": "reproducibly decreased reporter activity"}
